Where “and” joins values, the source holds several entries; their conditions need not be identical. Equal entries are not always repeated. The list shows a part of the results. Shown are side measurements of this screen, not its main read-out; they come without a call. Most of these compounds were active or inconclusive in the main read-out, so they are no random draw. The note in brackets gives the kind of curve behind each potency; many fits are weak. Square brackets hold non-standard residues; d marks the D form. Peptide text beside a SMILES is read from it. pGlu = O=C1CC[CH](C(=O)O)N1
Assay: qHTS Assay to Find Inhibitors of Chronic Active B-Cell Receptor Signaling
Details: ABC-DLBCL IkBa-CBG/CBR reporter, luminescence ratio (green luciferase fused to IkBa over red control in TMD8 lymphoma cells), 4 h
Method in brief: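 Concentration-response series (up to 46 uM) were applied to TMD8 dual-reporter cells for 4 h at 37C with doxycycline. Green/red ratio, after filter-overlap correction, defined %Activity; red signal alone was normalised to basal cells and zero luminescence.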

[1] = measured here: CBR red luminescence, cell number
[2] = measured here: IkBa-CBG green luminescence

| SMILES | AC50 [1] | AC50 [2] |
| --- | --- | --- |
| C=CCNc1ncnc2c1ncn2C1OC(CO)C(O)C1O (configuration not stated) | 12.6 µM [rising, partial curve] | 10 µM [falling, partial curve] |
| CCOc1ccc(C(=O)N(CN2CCCC2=O)c2ccccc2)cc1 | 11.2 µM [falling, partial curve, poor fit] |  |
| COc1cccc(-c2ccc3ncnc(NCc4cccs4)c3c2)c1 | 23.1 µM [falling, single point] and 20.6 µM [falling, single point] |  |
| CCNC(=O)C(CC(C)C)NC(=O)C(CO)NC(=O)C1CCC(=O)N1 (stereo not drawn) ([pGlu]-Ser-Leu-NHEt; configuration not given here) | 6.31 µM [rising, single point] |  |
| Cc1ccc(-c2cc(-c3n[nH]c(=S)o3)c3ccccc3n2)cc1 | 1.84 µM [rising, full curve] |  |
| NS(=O)(=O)c1ccc2nc(NC(=O)C3=COCCO3)sc2c1 | 35.5 µM [falling, single point] |  |
| O=C(Nc1c(Cl)cccc1Cl)c1cc(=O)n(Cc2ccccc2)c(=O)[nH]1 | 29.1 µM [rising, single point] |  |
| COc1ccc(CNc2cccc(F)c2)cc1Br | 20.6 µM [rising, partial curve, poor fit] |  |
| CC1CCN(C(=O)CCCC(=O)N2CCC(C)CC2)CC1 | 5.62 µM [falling, partial curve] |  |
| COc1cc(OC)c2c(-c3ccccc3)cc(=O)oc2c1C(CCN1CCCC(C)C1)c1ccc2c(c1)OCO2 (configuration not stated) | 35.5 µM [falling, single point] |  |
| O=C(NCc1ccccc1Br)c1ccc2c(c1)OCCO2 | 7.94 µM [falling, partial curve, poor fit] |  |
| COc1cc(C2CC(c3cccnc3)=NN2c2ccc(F)cc2)cc(OC)c1OC (configuration not stated) | 5.62 µM [rising, single point] |  |
| O=C(NCc1cccnc1)c1ccccc1Br | 4.61 µM [rising, single point] |  |
| COc1ccc(C(C)(C)C)cc1NC(=O)COC(=O)c1cc(SC)ccc1Cl | 29.1 µM [rising, single point] |  |
| CCC(C)n1c(NC(=O)c2ccccc2)c(C#N)c2nc3ccccc3nc21 (configuration not stated) | 7.94 µM [rising, partial curve] | 5.01 µM [falling, full curve] |
| COc1cc2c(cc1OC)[C@H](C)N(C(=O)NCc1ccccc1)CC2 | 35.5 µM [rising, partial curve, poor fit] |  |
| CC(C)=Cc1oc2ccc([N+](=O)[O-])cc2c1N1CCOCC1 | 20 µM [rising, partial curve, poor fit] |  |
| CCC(=O)Oc1ccc(C(=O)Nc2ccc([N+](=O)[O-])cc2)cc1 | 7.94 µM [falling, partial curve] |  |
| COc1ccc(N2CCN(C(=O)CN(C3CCCCC3)S(C)(=O)=O)CC2)cc1 | 35.5 µM [rising, partial curve, poor fit] |  |
| CCN(c1ccccc1)S(=O)(=O)c1ccc(Cl)c(NC(=O)Nc2ccc(Cl)cc2C#N)c1 | 29.1 µM [falling, single point] |  |

2 consecutive entries from above, quoted:

| SMILES | AC50 [1] | AC50 [2] |
| --- | --- | --- |
| CCNC(=O)C(CC(C)C)NC(=O)C(CO)NC(=O)C1CCC(=O)N1 (stereo not drawn) ([pGlu]-Ser-Leu-NHEt; configuration not given here) | 6.31 µM [rising, single point] |  |
| Cc1ccc(-c2cc(-c3n[nH]c(=S)o3)c3ccccc3n2)cc1 | 1.84 µM [rising, full curve] |  |

(list continues)

| SMILES | AC50 [1] | AC50 [2] |
| --- | --- | --- |
| CS(=O)(=O)Nc1cccc(C2=NN(C(=O)c3ccccc3)C(c3cccs3)C2)c1 (configuration not stated) | 35.5 µM [falling, single point] |  |
| Cc1occc1C(=O)NC1CCCCCCC1 | 1.3 µM [rising, full curve, poor fit] |  |
| CCOC(=O)C1(C)Oc2ccccc2C(C(=O)OC)=C1C(=O)OC (configuration not stated) | 16.4 µM [rising, partial curve, poor fit] |  |
| Cc1ccc(NC(=O)CSCC(=O)N2CCN(c3cccc(C(F)(F)F)c3)CC2)cc1 | 29.1 µM [falling, single point] |  |
| O=C(COCC(=O)N/N=C/c1ccc(F)cc1)N/N=C/c1ccc(F)cc1 | 6.51 µM [rising, single point] |  |
| CN(C)/C=C/C(=O)c1ccc(F)cc1 | 12.6 µM [rising, partial curve, poor fit] |  |
| COc1cccc(OC)c1C(=O)OCC(=O)NC1CCCCCC1 | 32.6 µM [falling, single point] |  |
| O=c1[nH]c2ccccc2nc1/C=C/c1ccccc1 | 7.94 µM [falling, partial curve, poor fit] |  |
| COC(=O)c1ccc(NC(=O)CSc2nnc(-c3ccncc3)n2N)cc1 | 35.5 µM [falling, single point] |  |
| CCn1cc(C(=O)NCc2ccc3c(c2)OCO3)c(=O)c2cc(F)c(N3CCN(C(=O)c4ccco4)CC3)cc21 | 13 µM [rising, single point] |  |
| CCOC(=O)N1CCC(NC(=O)CCN2C(=O)COc3ccccc32)CC1 | 20.6 µM [rising, single point] |  |
| CCn1cc(C(=O)N(C)c2ccccc2F)c2cc(OC)c(OC)cc2c1=O | 25.1 µM [falling, single point] |  |
| O=C(NCCc1ccc2c(c1)OCCO2)c1cccc(F)c1 | 16.4 µM [falling, partial curve] |  |
| CC(=O)N(C)c1nc(N)n(-c2ccccc2)n1 | 25.1 µM [falling, partial curve, poor fit] |  |
| O=C(Nc1ncccc1Cl)c1cc2ccccc2o1 | 11.2 µM [falling, partial curve, poor fit] |  |
| COc1cc2cc(C(c3nnnn3Cc3ccc(F)cc3)N3CCCCCC3)c(=O)[nH]c2cc1OC (configuration not stated) | 9.2 µM [falling, partial curve] |  |
| CC1(C)OC(=O)C(=NNc2ccc(C(=O)O)cc2)C(=O)O1 | 10 µM [falling, partial curve] |  |
| COc1ccc(OCC(=O)Nc2ccc(C(=O)Nc3ccccc3C(=O)O)cc2)cc1 | 12.6 µM [falling, partial curve] |  |
| CCN(CC)CCN1C(=O)c2ccccc2NC1c1cc(OC)c(OC)c(OC)c1 (configuration not stated) | 14.1 µM [falling, single point] |  |
| C/C(CC(=O)Nc1ccc(Cl)c(Cl)c1)=N\NC(=O)C(=O)N1CCCCC1 | 35.5 µM [falling, single point] |  |
